Reference: publication PMC4686425
Results are given in words; binding and its absence hold for the method and conditions named. Binding seen in cells or lysates may run through a third protein. Here binding means that the protein was enriched with, or labelled near, the bait; the list need not be complete.

Chains of the proteins cited; added tags and fusions are not shown.
UniProt P38873: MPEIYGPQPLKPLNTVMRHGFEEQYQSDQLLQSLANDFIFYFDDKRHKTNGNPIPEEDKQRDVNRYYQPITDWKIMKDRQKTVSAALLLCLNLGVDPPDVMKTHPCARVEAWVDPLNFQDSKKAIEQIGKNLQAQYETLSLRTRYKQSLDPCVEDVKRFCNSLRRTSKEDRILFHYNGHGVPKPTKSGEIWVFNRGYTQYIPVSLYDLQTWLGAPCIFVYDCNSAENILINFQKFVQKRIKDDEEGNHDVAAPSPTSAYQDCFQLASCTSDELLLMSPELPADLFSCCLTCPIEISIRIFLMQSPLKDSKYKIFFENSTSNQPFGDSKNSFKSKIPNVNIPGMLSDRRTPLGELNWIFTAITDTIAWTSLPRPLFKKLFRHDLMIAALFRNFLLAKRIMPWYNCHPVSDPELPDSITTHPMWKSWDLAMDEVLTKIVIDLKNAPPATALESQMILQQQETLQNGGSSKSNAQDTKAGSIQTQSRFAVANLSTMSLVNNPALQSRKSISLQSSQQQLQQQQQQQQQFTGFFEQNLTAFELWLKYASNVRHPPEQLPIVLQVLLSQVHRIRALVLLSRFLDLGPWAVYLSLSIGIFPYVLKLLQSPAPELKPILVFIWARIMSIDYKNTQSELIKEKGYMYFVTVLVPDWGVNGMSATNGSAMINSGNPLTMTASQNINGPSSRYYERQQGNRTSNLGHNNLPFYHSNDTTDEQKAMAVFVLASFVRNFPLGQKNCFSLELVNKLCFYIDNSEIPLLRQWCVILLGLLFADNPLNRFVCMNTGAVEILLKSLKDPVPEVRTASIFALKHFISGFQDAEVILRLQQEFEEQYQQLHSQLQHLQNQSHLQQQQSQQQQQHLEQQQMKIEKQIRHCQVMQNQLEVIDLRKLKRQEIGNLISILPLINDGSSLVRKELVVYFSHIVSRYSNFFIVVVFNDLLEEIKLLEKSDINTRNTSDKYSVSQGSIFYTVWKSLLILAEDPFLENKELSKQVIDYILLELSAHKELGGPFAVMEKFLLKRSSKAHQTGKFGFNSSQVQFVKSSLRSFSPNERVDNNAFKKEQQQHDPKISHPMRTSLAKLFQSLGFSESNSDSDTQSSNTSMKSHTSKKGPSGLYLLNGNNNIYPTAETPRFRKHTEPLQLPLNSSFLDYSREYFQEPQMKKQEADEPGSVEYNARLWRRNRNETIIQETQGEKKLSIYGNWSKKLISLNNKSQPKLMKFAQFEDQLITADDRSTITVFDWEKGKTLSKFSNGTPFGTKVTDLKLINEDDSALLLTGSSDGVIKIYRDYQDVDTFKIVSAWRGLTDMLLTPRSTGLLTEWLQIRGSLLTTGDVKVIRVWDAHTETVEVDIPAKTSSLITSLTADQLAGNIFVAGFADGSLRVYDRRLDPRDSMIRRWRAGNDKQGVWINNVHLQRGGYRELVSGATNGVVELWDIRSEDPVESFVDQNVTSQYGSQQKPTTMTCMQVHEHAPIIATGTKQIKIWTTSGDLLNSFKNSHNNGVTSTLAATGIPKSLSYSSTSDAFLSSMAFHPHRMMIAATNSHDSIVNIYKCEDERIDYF
UniProt P35169: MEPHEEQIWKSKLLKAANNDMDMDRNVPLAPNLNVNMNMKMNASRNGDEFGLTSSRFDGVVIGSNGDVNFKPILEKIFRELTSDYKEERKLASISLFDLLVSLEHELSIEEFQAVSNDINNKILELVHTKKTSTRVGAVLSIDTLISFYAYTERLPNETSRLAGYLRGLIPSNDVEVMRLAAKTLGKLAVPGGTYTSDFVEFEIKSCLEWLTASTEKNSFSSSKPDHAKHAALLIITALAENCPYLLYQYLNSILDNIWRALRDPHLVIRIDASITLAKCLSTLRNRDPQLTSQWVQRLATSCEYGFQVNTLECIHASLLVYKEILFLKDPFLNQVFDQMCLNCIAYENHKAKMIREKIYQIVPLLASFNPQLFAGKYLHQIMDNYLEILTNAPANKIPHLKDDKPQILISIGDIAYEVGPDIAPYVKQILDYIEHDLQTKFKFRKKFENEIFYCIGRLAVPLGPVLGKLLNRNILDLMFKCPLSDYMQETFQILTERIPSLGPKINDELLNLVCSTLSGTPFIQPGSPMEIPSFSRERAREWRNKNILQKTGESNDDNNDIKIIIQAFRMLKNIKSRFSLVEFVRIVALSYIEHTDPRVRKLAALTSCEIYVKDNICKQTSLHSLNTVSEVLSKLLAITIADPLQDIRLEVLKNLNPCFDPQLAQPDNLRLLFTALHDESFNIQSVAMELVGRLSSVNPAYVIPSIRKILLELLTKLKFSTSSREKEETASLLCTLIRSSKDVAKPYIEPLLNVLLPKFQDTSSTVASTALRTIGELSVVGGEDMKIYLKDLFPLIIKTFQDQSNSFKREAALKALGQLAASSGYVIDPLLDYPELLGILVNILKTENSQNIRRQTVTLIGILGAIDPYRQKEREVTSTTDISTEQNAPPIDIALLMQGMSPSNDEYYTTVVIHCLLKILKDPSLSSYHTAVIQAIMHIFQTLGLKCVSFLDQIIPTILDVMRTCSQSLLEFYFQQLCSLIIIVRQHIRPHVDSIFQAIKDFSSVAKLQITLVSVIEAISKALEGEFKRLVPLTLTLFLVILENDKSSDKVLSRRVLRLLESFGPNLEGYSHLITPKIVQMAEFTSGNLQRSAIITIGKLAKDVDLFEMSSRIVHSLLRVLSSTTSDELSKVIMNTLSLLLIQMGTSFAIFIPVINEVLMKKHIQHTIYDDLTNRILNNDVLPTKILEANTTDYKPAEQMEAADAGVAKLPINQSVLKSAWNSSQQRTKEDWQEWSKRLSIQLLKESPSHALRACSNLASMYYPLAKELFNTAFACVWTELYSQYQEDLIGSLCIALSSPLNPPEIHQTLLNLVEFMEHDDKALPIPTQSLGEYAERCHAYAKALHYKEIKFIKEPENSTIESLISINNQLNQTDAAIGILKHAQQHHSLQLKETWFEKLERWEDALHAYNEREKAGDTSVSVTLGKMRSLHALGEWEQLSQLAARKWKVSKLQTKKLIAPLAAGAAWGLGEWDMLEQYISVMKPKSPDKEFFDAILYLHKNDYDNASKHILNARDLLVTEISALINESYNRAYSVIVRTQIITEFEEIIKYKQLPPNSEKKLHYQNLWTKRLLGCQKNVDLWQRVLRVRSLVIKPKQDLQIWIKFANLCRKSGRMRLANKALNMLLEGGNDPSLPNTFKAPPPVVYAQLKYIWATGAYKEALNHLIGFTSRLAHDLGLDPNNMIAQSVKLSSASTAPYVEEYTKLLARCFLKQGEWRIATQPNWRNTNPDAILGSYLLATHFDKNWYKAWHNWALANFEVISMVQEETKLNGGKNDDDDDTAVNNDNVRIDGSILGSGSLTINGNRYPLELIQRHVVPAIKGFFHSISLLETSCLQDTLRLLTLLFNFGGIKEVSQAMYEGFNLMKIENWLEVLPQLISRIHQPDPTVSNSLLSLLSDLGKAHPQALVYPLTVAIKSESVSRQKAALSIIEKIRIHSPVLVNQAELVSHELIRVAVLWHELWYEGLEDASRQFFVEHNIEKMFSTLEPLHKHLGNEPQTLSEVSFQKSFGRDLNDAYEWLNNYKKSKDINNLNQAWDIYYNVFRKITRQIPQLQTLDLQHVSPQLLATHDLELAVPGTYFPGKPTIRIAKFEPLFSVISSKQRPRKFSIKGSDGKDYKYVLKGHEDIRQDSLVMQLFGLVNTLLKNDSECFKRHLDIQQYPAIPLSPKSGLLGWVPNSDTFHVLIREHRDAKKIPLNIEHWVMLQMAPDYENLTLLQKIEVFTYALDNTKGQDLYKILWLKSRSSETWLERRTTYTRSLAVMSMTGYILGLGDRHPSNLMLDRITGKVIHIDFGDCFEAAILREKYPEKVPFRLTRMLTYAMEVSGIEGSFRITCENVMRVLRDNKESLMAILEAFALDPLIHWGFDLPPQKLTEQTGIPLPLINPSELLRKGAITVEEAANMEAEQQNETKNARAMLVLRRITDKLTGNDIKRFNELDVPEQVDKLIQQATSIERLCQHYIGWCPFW

Target: Kog1-3xFlag (S. cerevisiae) (UniProt P38873)
Experiment: affinity purification with mass spectrometry; anti-Flag antibody on protein G Dynal beads, clarified lysate of yeast expressing Kog1-3xFlag, 30 min at 4°C; lysis buffer 50 mM HEPES pH 7.1, 150 mM KCl, 0.5% Tween 20; SDS gel stained with colloidal blue, bands excised for mass spectrometry; cells in SD medium, 5 min glucose starvation or 5 min 0.4 M KCl

## Tor1 (from UniProt P35169 1-2470)
  binding: binds
